Reference: paper PMC6345808, “Molecular structure and function of myelin protein P0 in membrane stacking” (Scientific Reports, 2019)
Results are given in words; binding and its absence hold for the method and conditions named.

Key:
[1] = biological target: cytoplasmic extension of human myelin protein zero (P0ct), Cys153Leu (human) (UniProt P25189); assay: SAXS; P0ct at 1.1–4.2 mg ml^−1 in SEC buffer (20 mM HEPES, 300 mM NaCl, 1% glycerol, pH 7.5), EMBL P12 beamline; both purified
[2] = biological target: cytoplasmic extension of human myelin protein zero (P0ct), Cys153Leu (human) (UniProt P25189); assay: SEC-MALS; P0ct, 250 µg injected on Superdex 75 pg 10/300GL, 20 mM HEPES, 300 mM NaCl, pH 7.5, 0.4 ml/min; both purified

B1: cytoplasmic extension of human myelin protein zero (P0ct), Cys153Leu (domain or fragment, UniProt P25189 180-248)
chain: GRYLWLRRQAALQRRLSAMEKGKLHKPGKDASKRGRQTPVLYAMLDHSRSTKAVSEKKAKGLGESRKDKK
- binding [1]: no binding (tested: 1.1–4.2 mg ml^−1)
- binding [2]: no binding (tested: 250-µg sample injected)
